Record: PubChem BioAssay AID504764 (Drosophila RNAi Screening Center, 2011)
The screen tested about 22,000 reagents; shown is a random part of those that have a named target and a result. Over the whole deposit, 403 (1.9%) are marked active. 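Unnormalised raw counts per well; ratio z-scores behind the hit calls and whether each hit raises or lowers signal are not deposited.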 The record does not give: the amount of reagent.

Screen: 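Genome-wide screen for regulators of Notch-driven gene expression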 (primary screen)
Cell system: Drosophila Kc167 cells
Reagents: long dsRNA against Drosophila genes
Duration: about 5 days (4 days dsRNA, then 24 h after transfection)
Treatment: transfection of constitutively active membrane-tethered Notch lacking the extracellular domain, read 24 h later
Detection: 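Light from a Notch-responsive E(spl)m3 luciferase reporter under active Notch, with control-promoter and no-Notch reporter wells to normalise; raw counts from paired wells a and b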
Scale: induced reporter light, run 1, well a and induced reporter light, run 1, well b: higher = more light from the Notch target reporter with active Notch; control promoter light, run 1, well a and control promoter light, run 1, well b: higher = more light from the viral control promoter (cell number, transfection, viability); uninduced reporter light, run 1, well a: higher = more light from the Notch target reporter without active Notch
Call rule: 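Wells with low control signal or poorly matching duplicates excluded; duplicates averaged; per source plate, z beyond ±2 for induced/control log2 ratio or beyond ±1.8 for induced/uninduced marks a hit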
Calls: active = modifier hit (raised or lowered Notch signal); inactive = not a hit

gene knocked down	dsRNA	induced reporter light, run 1, well a	induced reporter light, run 1, well b	control promoter light, run 1, well a	control promoter light, run 1, well b	uninduced reporter light, run 1, well a	activity call
nAChRalpha5	DRSC01360	1.02e5	73790	94420	86165	10100	inactive
nAChRalpha5	DRSC01946	1.45e5	1.63e5	1.89e5	1.84e5	13910	inactive
nAChRalpha5	DRSC01947	1.31e5	1.44e5	1.17e5	1.26e5	12555	inactive
GlcAT-P	DRSC10603	90655	1.30e5	1.05e5	47360	11285	inactive
GlcAT-P	DRSC10604	1.63e5	1.66e5	2.97e5	2.49e5	11438	inactive
Surf1	DRSC11295	1.68e5	1.42e5	1.70e5	1.39e5	7870	inactive
Surf1	DRSC11394	1.30e5	1.01e5	87920	31730	10000	inactive
CG9577	DRSC20693	1.05e5	1.18e5	1.29e5	1.22e5	11900	inactive
CkIIalpha-i3	DRSC08651	1.36e5	1.24e5	2.08e5	2.33e5	9680	inactive
dimm	DRSC03100	57665	34745	46895	45675	4210	inactive
Lgr1	DRSC16675	1.87e5	1.31e5	1.78e5	1.67e5	9700	inactive
SmD2	DRSC12536	65675	38395	30215	27085	3730	inactive
Vps51	DRSC06519	1.03e5	1.16e5	1.81e5	1.96e5	9205	inactive
CHOp24	DRSC18310	2.38e5	2.90e5	2.75e5	2.73e5	13120	inactive
Mst33A	DRSC03371	1.16e5	1.85e5	70130	88410	18985	inactive
CG30053	DRSC07260	98025	96515	1.31e5	1.19e5	10305	inactive
Npc2d	DRSC14551	78825	82795	78910	61230	4220	inactive
msb1l	DRSC03572	1.92e5	2.02e5	1.99e5	1.98e5	15450	inactive
CG3942	DRSC15525	61290	66425	49550	50365	3915	inactive
CG4702	DRSC15626	1.17e5	1.05e5	77855	1.02e5	10015	inactive
ema	DRSC14536	2.46e5	2.57e5	2.29e5	2.29e5	17945	inactive
CG13724	DRSC10053	3.01e5	2.36e5	3.88e5	3.42e5	12625	inactive
qkr58E-2	DRSC04710	1.65e5	1.81e5	1.57e5	1.66e5	13388	inactive
CG6985	DRSC16164	2.07e5	1.75e5	1.98e5	2.32e5	14850	inactive
CG4230	DRSC02740	1.46e5	1.59e5	1.51e5	1.72e5	14905	inactive
CG31178	DRSC14590	1.72e5	1.42e5	2.23e5	2.16e5	15735	inactive
sphinx2	DRSC22188						inactive

Just “control promoter light, run 1, well a”, for 6 of the entries above:
Surf1 [DRSC11295]	1.70e5
Surf1 [DRSC11394]	87920
CG9577 [DRSC20693]	1.29e5
CkIIalpha-i3 [DRSC08651]	2.08e5
dimm [DRSC03100]	46895
Lgr1 [DRSC16675]	1.78e5

The results go on:
gene knocked down	dsRNA	induced reporter light, run 1, well a	induced reporter light, run 1, well b	control promoter light, run 1, well a	control promoter light, run 1, well b	uninduced reporter light, run 1, well a	activity call
mRpL49	DRSC19908	1.60e5	1.30e5	3.30e5	2.47e5	8380	inactive
CG31784	DRSC01574	65545	56615	75365	58710	4730	inactive
CG1387	DRSC17904	3.01e5	2.06e5	3.12e5	2.92e5	19478	inactive
HP1b	DRSC18418	59470	62035	71545	63215	4435	inactive
lilli	DRSC00708	2.75e5	2.41e5	2.25e5	2.31e5	20885	inactive
CG11562	DRSC00316	70340	51160	41500	20005	5080	inactive
dpr12	DRSC04814	61595	64555	82285	79650	3615	inactive
dpr12	DRSC04863	2.20e5	1.96e5	1.89e5	1.82e5	12455	inactive
dpr12	DRSC04892	2.28e5	2.19e5	2.38e5	1.78e5	14280	inactive
mfrn	DRSC15687	98720	1.12e5	1.35e5	1.43e5	9665	inactive
RpS19b	DRSC15773	1.58e5	1.25e5	1.86e5	1.93e5	10825	inactive
DnaJ-1	DRSC11145	65935	69240	88290	38310	10395	active
Aplip1	DRSC07947	1.91e5	2.02e5	2.30e5	2.25e5	14570	inactive
Aplip1	DRSC08697	1.63e5	1.34e5	2.01e5	1.99e5	8355	inactive
ReepA	DRSC04572	84800	96270	58045	62300	6805	inactive
CG9380	DRSC04549	2.19e5	2.20e5	2.22e5	2.46e5	17195	inactive
mRpS25	DRSC19598	1.08e5	82935	1.21e5	97305	11895	inactive
Ser6	DRSC20574	83550	1.14e5	79535	1.22e5	8500	inactive
sxc	DRSC04911	1.95e5	1.52e5	1.98e5	2.16e5	13382	inactive
Sce	DRSC16825	1.32e5	1.36e5	1.98e5	1.75e5	7880	inactive
wdb	DRSC14163	1.67e5	1.26e5	1.66e5	1.83e5	11542	inactive
CG14229	DRSC19585	18635	18985	18078	21695	7265	inactive
CG42582 (retired record)	DRSC20675	2.02e5	1.69e5	3.11e5	2.68e5	13770	inactive
